# This is one part of the list. These are further read-outs of the screen, such as a control signal, another cell line or another target. No call is given for them. Most of these compounds were active or inconclusive in the main read-out, so they are no random draw. Words in brackets tell the shape of the fitted curve; partial curves, single points and poor fits give uncertain potencies.
# Assay: Cell signaling CRE-BLA (Fsk stim)
# Details: CHO CRE-bla reporter (cAMP response element driving beta-lactamase), forskolin EC10, beta-lactamase ratio; measured here: 460 nm blue channel
# Procedure, shortened: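 Modulation of forskolin signalling: compounds in titration series added with EC10 NKH 477 to CHO cells carrying a CRE-driven beta-lactamase reporter, 3 h, 37C. CCF4 FRET ratio (460/530 nm, ex 405 nm) gives %activity and AC50.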
row,SMILES,AC50
1,O=c1c2c(-c3ccco3)csc2nc(SCc2cn3cccnc3n2)n1-c1ccccc1,"1 µM [rising, partial curve]"
2,COc1ccc(-c2nc3cnc(N4CCN(C)CC4)nc3n(Cc3ccc(F)cc3)c2=O)cc1,"2.51 µM [rising, partial curve]"
3,Cc1ccccc1-c1nc(N2CCOCC2)c2ccccc2n1,"5.01 µM [rising, full curve]"
4,COc1cccc(-c2nn(C)c3sc(C(=O)NCc4ccc(C)o4)cc23)c1,"7.94 µM [rising, partial curve]"
5,CCc1nnc(NC(=O)CSc2nnc(-c3ccccc3NC(=O)c3ccccc3)o2)s1,"25.1 µM [falling, single point]"
6,O=C(CC(C(=O)N1CCc2ccccc21)n1ccnc1)NCC1CCCO1 (stereo not drawn),"5.01 µM [falling, partial curve]"
7,O=S(=O)(c1ccccc1)c1nc(-c2ccco2)oc1N1CCOCC1,"0.1 µM [rising, single point]"
8,CCn1cc(C(=O)NCc2ccco2)c(=O)c2cc(S(=O)(=O)N3CCCCCC3)ccc21,"15.8 µM [rising, partial curve]"
9,CCC/C(O)=C1\C(=O)CC(C)(C)CC1=NCCO,"12.6 µM [rising, single point]"
10,CN(C)S(=O)(=O)N1CCC(c2ccc(F)cc2)C(COc2ccc3c(c2)OCO3)C1 (stereo not drawn),"15.8 µM [falling, partial curve]"
11,COc1ccccc1NC(=O)Cc1nn(C)c(=O)c2ccccc12,"0.00398 µM [falling, full curve, poor fit]"
12,COc1ccc(-c2nnc3ccc(SCC(=O)N4CCCCCC4)nn23)cc1OC,"7.94 µM [rising, partial curve]"
13,CCCC[C@@H]1C[C@H]1C(NC(=O)c1ccccc1)c1ccc(C(=O)OC)cc1 (stereo partly drawn),"5.01 µM [rising, partial curve]"
14,CN=CC1=C(O)c2ccccc2C1=O,"0.0794 µM [falling, full curve]"
15,CCCc1cc(-c2[nH]ncc2-c2ccc3c(c2)OCCCO3)c(O)cc1O,"6.31 µM [falling, partial curve]"
16,CCn1c(=O)c2cc(C(=O)N3CCOCC3)sc2c2ccccc21,"2 µM [rising, full curve]"
17,O=C(c1ccco1)N1CCN(c2ncnc3c2[nH]c2ccc(Br)cc23)CC1,"0.126 µM [rising, full curve]"
18,COCCOC(=O)/C=C1/NC(=O)CS1,"5.01 µM [falling, single point]"
19,CC1(C)Cc2ccccc2-c2nnc(-c3ccccn3)n21,"10 µM [falling, single point]"
20,Cc1ccc(Nc2nc(N)nc(CN3CCN(C(=O)c4ccco4)CC3)n2)cc1Cl,"12.6 µM [rising, single point]"
21,CC1(C)Cc2c(C#N)c(SCC(=O)c3ccccc3)nc(N3CCOCC3)c2CO1,"0.00398 µM [falling, full curve, poor fit]"
22,Cc1cc(NC(=O)c2cc(S(=O)(=O)N3CCCCC3)ccc2C)n(-c2ccccn2)n1,"2.51 µM [rising, single point]"

# Part of the list above, bar-delimited.
row | SMILES | AC50
19 | CC1(C)Cc2ccccc2-c2nnc(-c3ccccn3)n21 | 10 µM [falling, single point]
20 | Cc1ccc(Nc2nc(N)nc(CN3CCN(C(=O)c4ccco4)CC3)n2)cc1Cl | 12.6 µM [rising, single point]

# Next records follow:

row,SMILES,AC50
1,Cn1c(=O)[nH]c(=O)c2c1nc(CN1CCN(c3ccc(F)cc3)CC1)n2CCCc1ccccc1,"3.98 µM [rising, partial curve]"
2,COc1ccc(C(c2sc3nc(C)nn3c2O)N2CCc3ccccc3C2)cc1 (stereo not drawn),"7.94 µM [rising, partial curve]"
3,Cc1ccnc2nc(C(=O)OCCOc3ccccc3)nn12,"25.1 µM [rising, single point]"
4,Cc1ccc2cc3cc(C(=O)NCCCN4CCCCCC4)oc3nc2c1,"0.1 µM [rising, full curve]"
5,CSc1nc(-c2ccccc2)nc(SC)c1C(C)=O,"12.6 µM [rising, partial curve]"
6,CCCCCCCC(=O)O[C@H](CC(=O)O)C[N+](C)(C)C,"31.6 µM [falling, single point]"
7,Cc1ccc2nc(NC(=O)CNS(=O)(=O)c3ccc(Br)s3)sc2c1,"0.158 µM [falling, full curve]"
8,CCCn1c(-c2ccc(F)cc2)n[nH]c1=S,"10 µM [rising, partial curve, poor fit]"
9,CCOC(=O)C1CCN(C(=O)CCCOc2ccccc2)CC1,"0.316 µM [rising, partial curve, poor fit]"
10,COC1Cc2ccccc2N(C(=O)N2CCN(CCO)CC2)c2ccccc21 (stereo not drawn),"3.98 µM [falling, full curve, poor fit]"
11,Cc1cc(=O)oc2c(N)c(O)ccc12,"20 µM [falling, single point]"
12,CCOC(=O)Cn1c(=O)n(CC(=O)OCC)c2ccccc21,"0.02 µM [falling, full curve, poor fit]"
13,CC1=C(C(=O)OC2CCCCC2)C(c2ccco2)n2ncnc2N1 (stereo not drawn),"6.31 µM [rising, partial curve]"
14,COC(=O)[C@@]1(Cc2ccccc2)[C@H]2c3cc(C(=O)N(C)C)n(Cc4ccc(S(C)(=O)=O)cc4)c3C[C@H]2CN1C(=O)c1ccccc1,"0.126 µM [rising, full curve, poor fit]"
15,COc1cc(/C=C\C(=O)CC(=O)/C=C\c2ccc(O)c(OC)c2)ccc1O,"25.1 µM [rising, partial curve]"
16,O=C(NCC(=O)N1CCC(N2CCCCC2)CC1)C1CCCCC1,"12.6 µM [rising, single point]"
17,O=C(CCCOc1ccccc1)N1CCCc2ccccc21,"0.00316 µM [falling, partial curve, poor fit]"
18,CC12CCC(c3c(C(=O)Nc4nccs4)nn(-c4ccccc4)c31)C2(C)C (stereo not drawn),"12.6 µM [rising, partial curve]"
19,Cc1nnc2sc(-c3csc4c3CCCC4)nn12,"10 µM [rising, partial curve]"
20,Cc1cccn2c(=O)c(C=Nc3ccc(Cl)cc3)c(NCCO)nc12,"0.1 µM [rising, partial curve]"
21,Cc1ccccc1OCCCC(=O)Nc1ccc(N2CCOCC2)cc1,"0.0631 µM [rising, full curve, poor fit]"

# Reference: PubChem BioAssay AID662 (National Center for Advancing Translational Sciences (NCATS), 2007)
